In paper doi:10.1101/2020.07.19.210252:
These are yes or no findings as the source states them, for the method shown. Binding seen in cells or lysates may run through a third protein. Some entries that bind do so weakly or less than the wild type.

Protein sequences, listed by entry. Tags and fused reporters are not part of them.
UniProt P51114: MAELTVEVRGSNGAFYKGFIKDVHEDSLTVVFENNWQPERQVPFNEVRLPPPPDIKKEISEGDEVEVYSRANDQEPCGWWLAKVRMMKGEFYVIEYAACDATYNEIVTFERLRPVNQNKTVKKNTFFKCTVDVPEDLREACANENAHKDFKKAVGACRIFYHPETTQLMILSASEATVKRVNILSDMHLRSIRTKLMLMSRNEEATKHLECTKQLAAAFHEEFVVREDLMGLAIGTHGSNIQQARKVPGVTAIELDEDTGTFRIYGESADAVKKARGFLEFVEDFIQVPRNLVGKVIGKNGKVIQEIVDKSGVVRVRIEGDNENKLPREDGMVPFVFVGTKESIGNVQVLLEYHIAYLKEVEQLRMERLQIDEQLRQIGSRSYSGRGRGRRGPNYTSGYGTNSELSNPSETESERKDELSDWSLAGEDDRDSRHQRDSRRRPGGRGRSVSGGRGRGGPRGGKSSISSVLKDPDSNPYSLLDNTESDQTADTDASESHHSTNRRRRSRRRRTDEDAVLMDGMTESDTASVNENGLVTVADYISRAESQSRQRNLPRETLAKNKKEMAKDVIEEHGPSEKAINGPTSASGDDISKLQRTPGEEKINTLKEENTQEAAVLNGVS
UniProt P60842: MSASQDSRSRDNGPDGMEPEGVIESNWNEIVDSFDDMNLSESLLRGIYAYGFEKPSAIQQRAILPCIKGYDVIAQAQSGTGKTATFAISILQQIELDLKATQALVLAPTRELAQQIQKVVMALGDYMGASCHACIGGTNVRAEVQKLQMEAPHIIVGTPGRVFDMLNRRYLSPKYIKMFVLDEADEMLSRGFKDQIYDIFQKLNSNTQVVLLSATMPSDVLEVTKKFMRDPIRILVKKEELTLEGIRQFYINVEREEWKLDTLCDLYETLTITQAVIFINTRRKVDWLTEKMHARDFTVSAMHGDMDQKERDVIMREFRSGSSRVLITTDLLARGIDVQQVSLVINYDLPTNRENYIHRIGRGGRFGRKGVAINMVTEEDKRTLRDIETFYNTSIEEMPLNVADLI
UniProt P06730: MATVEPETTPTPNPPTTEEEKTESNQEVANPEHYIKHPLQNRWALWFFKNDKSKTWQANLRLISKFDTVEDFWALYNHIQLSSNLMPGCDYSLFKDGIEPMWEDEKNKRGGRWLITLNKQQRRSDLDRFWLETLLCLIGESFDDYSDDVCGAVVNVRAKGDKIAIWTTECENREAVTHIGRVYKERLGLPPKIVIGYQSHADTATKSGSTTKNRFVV

Biological target: FXR1 (fragile X-related protein 1) (human (endogenous in HeyA8)) (UniProt P51114)
Assay: co-IP

binding | Substance
binds | eIF4A1 (from UniProt P60842 1-406)
binds | eIF4E (from UniProt P06730 1-217)
